The other results are listed elsewhere or left out.
Compound: COc1ccc(Cn2ccc3ccc(C(=O)NO)cc32)cc1
Assay: dose-dependent thermal stabilisation call (2D-TPP, DLPTP, 10% FDR) (binary (1 = stabilised)); higher = stabilised by the compound
Details: system: HL-60 intact cells; concentration range 0.04-10 µM

The chains behind the UniProt entries cited, without tags or fusion partners. Where a name states a change or a piece, a line headed by the entry shows the natural chain unless it says otherwise.
UniProt O95239: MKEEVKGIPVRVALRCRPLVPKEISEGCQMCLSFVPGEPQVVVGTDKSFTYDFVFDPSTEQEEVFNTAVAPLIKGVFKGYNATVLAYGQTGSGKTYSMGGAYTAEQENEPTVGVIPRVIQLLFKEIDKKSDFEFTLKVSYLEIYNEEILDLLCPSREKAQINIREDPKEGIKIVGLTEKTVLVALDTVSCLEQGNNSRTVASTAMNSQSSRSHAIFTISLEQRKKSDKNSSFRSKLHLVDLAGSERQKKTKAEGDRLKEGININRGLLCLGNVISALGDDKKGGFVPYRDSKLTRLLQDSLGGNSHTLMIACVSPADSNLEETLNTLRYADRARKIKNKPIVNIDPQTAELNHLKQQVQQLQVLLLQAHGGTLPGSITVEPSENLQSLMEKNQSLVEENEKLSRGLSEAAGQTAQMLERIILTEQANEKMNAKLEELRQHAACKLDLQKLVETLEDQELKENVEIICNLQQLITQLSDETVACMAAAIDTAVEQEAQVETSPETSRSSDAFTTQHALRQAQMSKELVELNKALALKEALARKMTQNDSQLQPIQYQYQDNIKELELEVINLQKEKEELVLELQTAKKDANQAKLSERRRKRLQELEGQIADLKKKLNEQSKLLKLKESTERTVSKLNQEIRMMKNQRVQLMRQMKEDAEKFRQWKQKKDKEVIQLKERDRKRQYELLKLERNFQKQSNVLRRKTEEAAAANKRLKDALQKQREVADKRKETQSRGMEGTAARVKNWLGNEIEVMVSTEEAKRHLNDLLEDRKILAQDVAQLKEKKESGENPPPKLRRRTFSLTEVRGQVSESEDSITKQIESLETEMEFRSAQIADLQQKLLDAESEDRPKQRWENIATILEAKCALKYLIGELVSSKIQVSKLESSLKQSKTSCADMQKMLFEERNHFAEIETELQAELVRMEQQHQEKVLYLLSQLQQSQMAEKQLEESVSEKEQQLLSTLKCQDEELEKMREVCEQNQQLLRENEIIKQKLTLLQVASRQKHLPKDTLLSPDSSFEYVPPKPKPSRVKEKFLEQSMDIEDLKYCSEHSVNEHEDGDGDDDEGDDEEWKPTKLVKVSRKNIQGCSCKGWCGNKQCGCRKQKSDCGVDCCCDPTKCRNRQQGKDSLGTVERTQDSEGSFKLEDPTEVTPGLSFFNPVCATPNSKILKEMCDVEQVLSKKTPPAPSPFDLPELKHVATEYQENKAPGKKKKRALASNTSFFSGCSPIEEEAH
UniProt P52294, whole entry: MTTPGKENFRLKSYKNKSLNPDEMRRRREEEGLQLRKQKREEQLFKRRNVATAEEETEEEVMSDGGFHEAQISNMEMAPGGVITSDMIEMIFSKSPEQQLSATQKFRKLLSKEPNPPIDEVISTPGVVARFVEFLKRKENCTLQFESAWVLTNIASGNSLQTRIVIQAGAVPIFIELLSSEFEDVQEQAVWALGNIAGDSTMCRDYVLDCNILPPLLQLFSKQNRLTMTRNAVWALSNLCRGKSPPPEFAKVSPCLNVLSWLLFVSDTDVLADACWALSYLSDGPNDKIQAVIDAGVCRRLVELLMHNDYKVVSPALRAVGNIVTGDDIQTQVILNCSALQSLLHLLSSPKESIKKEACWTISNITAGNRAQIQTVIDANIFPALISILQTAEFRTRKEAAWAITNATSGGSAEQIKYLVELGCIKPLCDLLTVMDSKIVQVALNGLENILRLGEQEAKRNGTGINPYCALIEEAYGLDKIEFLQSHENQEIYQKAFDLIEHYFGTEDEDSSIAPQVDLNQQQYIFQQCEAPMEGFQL
UniProt Q9H008: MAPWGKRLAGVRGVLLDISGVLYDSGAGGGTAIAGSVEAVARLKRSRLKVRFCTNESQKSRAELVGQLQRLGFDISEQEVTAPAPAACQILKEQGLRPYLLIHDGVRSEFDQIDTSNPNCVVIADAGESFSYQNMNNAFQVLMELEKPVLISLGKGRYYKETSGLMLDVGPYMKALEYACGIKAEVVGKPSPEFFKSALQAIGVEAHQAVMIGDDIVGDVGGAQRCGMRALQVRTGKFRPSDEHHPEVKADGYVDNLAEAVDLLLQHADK
UniProt Q6P9B6: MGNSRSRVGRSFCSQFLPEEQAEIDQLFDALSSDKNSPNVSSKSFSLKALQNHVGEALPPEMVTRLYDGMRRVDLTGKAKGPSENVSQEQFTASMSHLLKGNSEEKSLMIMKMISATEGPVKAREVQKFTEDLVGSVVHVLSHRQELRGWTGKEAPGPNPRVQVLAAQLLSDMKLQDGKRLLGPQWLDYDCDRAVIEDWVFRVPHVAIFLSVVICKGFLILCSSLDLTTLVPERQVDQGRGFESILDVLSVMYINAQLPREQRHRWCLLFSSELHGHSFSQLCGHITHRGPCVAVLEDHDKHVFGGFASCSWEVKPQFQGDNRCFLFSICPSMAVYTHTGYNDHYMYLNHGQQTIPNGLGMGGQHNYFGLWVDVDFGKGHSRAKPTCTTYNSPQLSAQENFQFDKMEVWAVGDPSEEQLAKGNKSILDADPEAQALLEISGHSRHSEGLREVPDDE
UniProt Q9ULE6: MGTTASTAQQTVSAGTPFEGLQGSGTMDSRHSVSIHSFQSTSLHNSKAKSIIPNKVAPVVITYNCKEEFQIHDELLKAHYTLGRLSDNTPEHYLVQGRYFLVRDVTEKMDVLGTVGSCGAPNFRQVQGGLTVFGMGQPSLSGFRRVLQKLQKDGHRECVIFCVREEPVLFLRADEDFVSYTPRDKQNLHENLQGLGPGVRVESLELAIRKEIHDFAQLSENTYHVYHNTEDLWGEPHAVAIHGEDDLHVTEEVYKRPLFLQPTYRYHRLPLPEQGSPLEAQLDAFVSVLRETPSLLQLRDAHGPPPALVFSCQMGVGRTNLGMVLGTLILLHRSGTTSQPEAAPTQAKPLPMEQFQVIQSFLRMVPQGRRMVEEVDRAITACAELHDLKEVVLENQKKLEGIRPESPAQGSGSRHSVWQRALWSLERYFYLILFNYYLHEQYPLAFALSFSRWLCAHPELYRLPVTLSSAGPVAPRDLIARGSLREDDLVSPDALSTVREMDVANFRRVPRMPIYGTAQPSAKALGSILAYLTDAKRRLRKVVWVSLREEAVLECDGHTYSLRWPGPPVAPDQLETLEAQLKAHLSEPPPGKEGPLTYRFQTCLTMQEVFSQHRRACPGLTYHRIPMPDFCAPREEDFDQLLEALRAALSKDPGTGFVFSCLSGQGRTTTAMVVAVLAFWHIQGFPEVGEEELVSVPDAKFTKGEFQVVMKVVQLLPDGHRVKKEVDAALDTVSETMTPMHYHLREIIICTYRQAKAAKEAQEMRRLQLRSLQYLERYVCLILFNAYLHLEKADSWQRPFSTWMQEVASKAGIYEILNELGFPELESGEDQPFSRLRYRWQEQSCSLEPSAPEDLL
UniProt P61326, whole entry: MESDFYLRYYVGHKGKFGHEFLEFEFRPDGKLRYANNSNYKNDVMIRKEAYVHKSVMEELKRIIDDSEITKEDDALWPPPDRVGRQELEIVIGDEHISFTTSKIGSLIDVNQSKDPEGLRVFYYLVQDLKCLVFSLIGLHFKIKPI
UniProt Q9BQ69: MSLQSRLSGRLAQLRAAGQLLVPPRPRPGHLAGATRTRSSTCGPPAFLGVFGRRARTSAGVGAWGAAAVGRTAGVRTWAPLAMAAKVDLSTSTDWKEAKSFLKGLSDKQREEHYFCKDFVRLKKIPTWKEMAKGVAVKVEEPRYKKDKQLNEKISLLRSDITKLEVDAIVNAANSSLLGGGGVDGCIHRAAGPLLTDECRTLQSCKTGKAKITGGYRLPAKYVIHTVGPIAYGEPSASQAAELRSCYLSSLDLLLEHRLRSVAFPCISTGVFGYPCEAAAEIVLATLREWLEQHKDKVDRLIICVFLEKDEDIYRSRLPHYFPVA
UniProt P49641: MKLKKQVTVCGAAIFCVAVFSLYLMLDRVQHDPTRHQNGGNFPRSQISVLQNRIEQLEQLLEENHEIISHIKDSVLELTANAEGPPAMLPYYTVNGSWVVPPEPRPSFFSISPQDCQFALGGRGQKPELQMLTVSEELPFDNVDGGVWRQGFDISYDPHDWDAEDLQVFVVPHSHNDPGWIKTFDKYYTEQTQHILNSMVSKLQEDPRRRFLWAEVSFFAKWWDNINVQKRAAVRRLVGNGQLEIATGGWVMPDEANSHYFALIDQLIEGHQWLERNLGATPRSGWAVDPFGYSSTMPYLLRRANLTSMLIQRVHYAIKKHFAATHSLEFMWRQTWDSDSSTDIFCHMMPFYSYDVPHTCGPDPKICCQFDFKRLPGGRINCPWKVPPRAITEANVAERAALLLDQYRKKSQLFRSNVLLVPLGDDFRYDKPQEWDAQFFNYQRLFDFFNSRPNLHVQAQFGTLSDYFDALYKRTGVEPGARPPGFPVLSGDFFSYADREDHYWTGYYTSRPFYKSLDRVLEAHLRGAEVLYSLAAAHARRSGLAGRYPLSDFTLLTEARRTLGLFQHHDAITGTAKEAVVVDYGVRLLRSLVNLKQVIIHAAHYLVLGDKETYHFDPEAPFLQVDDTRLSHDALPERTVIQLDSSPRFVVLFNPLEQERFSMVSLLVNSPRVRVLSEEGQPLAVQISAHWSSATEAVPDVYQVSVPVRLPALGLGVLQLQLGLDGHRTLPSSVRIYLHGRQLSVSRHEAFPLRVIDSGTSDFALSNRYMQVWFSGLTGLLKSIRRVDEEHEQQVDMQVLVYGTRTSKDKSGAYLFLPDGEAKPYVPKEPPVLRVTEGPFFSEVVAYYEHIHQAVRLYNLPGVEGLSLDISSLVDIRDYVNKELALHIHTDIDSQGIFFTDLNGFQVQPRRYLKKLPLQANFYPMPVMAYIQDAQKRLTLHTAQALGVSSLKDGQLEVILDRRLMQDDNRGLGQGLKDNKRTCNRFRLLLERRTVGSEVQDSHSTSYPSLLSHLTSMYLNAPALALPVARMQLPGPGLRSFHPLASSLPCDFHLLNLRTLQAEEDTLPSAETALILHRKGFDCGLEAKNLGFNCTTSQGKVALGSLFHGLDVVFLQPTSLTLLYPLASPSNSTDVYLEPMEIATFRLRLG
UniProt Q9NS86: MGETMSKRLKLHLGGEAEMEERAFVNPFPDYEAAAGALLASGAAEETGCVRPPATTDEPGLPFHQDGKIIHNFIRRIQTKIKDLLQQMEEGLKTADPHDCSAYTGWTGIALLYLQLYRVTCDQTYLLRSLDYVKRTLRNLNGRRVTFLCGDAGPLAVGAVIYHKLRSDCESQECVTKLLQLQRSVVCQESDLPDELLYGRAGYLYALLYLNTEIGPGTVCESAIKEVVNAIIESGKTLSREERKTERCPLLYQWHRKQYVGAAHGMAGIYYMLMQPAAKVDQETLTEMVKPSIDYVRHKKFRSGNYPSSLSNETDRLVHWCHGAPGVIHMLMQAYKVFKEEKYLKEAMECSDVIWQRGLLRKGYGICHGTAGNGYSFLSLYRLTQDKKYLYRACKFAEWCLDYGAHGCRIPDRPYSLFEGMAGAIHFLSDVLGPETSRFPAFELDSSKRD
UniProt O60664: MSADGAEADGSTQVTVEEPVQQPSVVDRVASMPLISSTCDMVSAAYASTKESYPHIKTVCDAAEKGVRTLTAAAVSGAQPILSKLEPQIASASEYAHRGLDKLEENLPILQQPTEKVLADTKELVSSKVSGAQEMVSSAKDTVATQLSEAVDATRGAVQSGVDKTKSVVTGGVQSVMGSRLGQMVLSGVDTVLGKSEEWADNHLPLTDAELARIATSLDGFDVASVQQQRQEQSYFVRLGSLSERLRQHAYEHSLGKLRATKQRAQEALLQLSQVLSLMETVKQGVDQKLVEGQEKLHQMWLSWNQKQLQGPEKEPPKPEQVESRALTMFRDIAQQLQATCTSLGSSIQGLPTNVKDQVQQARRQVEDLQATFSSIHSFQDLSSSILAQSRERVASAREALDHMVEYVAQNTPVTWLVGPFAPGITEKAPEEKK
UniProt Q9H9A6: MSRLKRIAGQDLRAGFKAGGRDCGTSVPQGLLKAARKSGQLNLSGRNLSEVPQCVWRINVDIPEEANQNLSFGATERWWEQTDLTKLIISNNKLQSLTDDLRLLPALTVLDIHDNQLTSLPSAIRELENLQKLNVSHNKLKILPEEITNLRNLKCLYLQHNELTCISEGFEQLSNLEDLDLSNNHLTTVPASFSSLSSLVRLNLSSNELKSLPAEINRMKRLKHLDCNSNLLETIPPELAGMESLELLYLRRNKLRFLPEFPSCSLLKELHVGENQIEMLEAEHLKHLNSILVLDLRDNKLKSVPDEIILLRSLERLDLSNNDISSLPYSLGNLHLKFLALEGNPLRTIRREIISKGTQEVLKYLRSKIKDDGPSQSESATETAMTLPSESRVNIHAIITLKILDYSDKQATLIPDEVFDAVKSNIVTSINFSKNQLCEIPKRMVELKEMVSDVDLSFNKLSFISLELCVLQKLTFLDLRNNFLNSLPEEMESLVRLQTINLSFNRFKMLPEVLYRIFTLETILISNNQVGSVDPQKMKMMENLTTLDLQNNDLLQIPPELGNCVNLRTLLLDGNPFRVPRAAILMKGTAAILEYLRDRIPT
UniProt P62310: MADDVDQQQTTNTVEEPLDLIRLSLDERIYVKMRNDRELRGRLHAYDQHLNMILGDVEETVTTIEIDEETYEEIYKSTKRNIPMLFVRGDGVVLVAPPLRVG

Target | dose-dependent thermal stabilisation call
KIF4A (UniProt O95239) | inactive: 0
KPNA1 (UniProt P52294) | inactive: 0
LHPP (UniProt Q9H008) | inactive: 0
KTELC1 (UniProt Q8NBL1) | inactive: 0
KLC4 (UniProt Q9NSK0) | inactive: 0
MAD1L1 (UniProt Q9Y6D9) | inactive: 0
KIAA1704 (UniProt Q8IXQ4) | inactive: 0
LRP8 (UniProt Q14114) | inactive: 0
MAD2L1 (UniProt Q13257) | inactive: 0
KIF11 (UniProt P52732) | inactive: 0
LOC26010 | inactive: 0
LRRFIP1 (UniProt Q32MZ4) | inactive: 0
KIAA1430 (UniProt Q9P2B7) | inactive: 0
LAS1L (UniProt Q9Y4W2) | inactive: 0
LBR (UniProt Q14739) | inactive: 0
LRRC8A (UniProt Q8IWT6) | inactive: 0
LSG1 (UniProt Q9H089) | inactive: 0
KRI1 (UniProt Q8N9T8) | inactive: 0
LIG1 (UniProt P18858) | inactive: 0

3 entries from above, with each value named.
LRRC8A (UniProt Q8IWT6)
  dose-dependent thermal stabilisation call: inactive: 0
LSG1 (UniProt Q9H089)
  dose-dependent thermal stabilisation call: inactive: 0
LIG1 (UniProt P18858)
  dose-dependent thermal stabilisation call: inactive: 0

The results go on.

Target | dose-dependent thermal stabilisation call
KIAA0907 (UniProt Q7Z7F0) | inactive: 0
KIAA1609 (UniProt Q6P9B6) | inactive: 0
KIAA1274 (UniProt Q9ULE6) | inactive: 0
LRPAP1 (UniProt P30533) | inactive: 0
KLHL26 (UniProt Q53HC5) | inactive: 0
KIAA1618 (UniProt Q63HN8) | inactive: 0
MAGOH (UniProt P61326) | inactive: 0
LOC728658 | inactive: 0
LDLRAP1 (UniProt Q5SW96) | inactive: 0
MACROD1 (UniProt Q9BQ69) | inactive: 0
MAN2A2 (UniProt P49641) | inactive: 0
LANCL2 (UniProt Q9NS86) | inactive: 0
LSM14A (UniProt Q8ND56) | inactive: 0
LOC100133916 | inactive: 0
M6PRBP1 (UniProt O60664) | inactive: 0
LRRC40 (UniProt Q9H9A6) | inactive: 0
LSM3 (UniProt P62310) | inactive: 0
LMBRD2 (UniProt Q68DH5) | inactive: 0
